These results are taken from publication PMC8151980.

B1: TOC34 (protein, UniProt Q38906 1-313)
chain: MAALQTLREWIGIQQFPPATQSKLLEILGKYKEEDVSSLTVLVMGKGGVGKSSTVNSVIGEKAAAVSTFQSEGLRPTLVSRTRSGFTLNIIDTPGLIEGGYVNDQAINIIKRFLLNMTIDVLLYVDRLDVYRVDDLDRQVVGAITDAFGKEIWKKSALVLTHAQFSPPDGLNYNHFVSKRSNALLKVIQTGAQLKKQDLQGFSIPVILVENSGRCHKNESDEKILPCGTSWIPNLFNKITEISFNGNKAIHVDKKLVEGPNPNERGKKLIPLMFAFQYLLVMKPLVRAIKSDVSRESKPAWELRDSGLASRRS
B2: TIC55 (protein, UniProt Q9SK50 51-539)
chain: AVAGTAVSDQTEGGGDVLLNPEEEKRVEVADYDWTEEWYPLYLTKNVPEDAPLGLTVYDRQIVLYKDGEGTLRCYEDRCPHRLAKLSEGQLIDGRLECLYHGWQFEGEGKCVKIPQLPASAKIPKAACVKTYEVKDSQGVVWVWMSTKTPPNPEKLPWFENFARPGFFDISTTHELPYDHSILLENLMDPAHVPISHDRTDFTAKREDAQPLVFEVTERSNRGFAGTWGREKEGGKGSNLLRFDAPCVLQNNREFEGKDGVKNYFSGLFLCRPTGQGKSMLIVRFGVTKRSPLVSVLPQWFWHQNACKVFEQDMGFLSSQNEVLMKEKVPTKDLYLNLKSSDTWVAEYRKWMDKVGHGMPYHFGHRTISLPKVPPVVEHAPAGLIAALSASYPAKGGIGTMHAPNLANRYFRHIIHCRSCSNVIKSFELWKNILSATAVALTALAILVVSRQWKAVLLGSAALCSAAAYTCLRAINLNTNNFIRTHRRL
B3: HP30 (At3g49560) (protein, UniProt Q9SCK3 1-261)
chain: MVVGGGGEGDQKRSSGEMMAMASLFNDQQNPIQQFQVKFKEVETNFKTWLSKQSIPVEAAVVSTMSGVQGAFIGGLMGTLSPEMPQAGVDPQAIASMKQAQALVGGPWVQARNFAAITGVNAGIASVMKRIRGKEDIESAVVAALGSGFAYSLVSQGLQGQPMNAITTAAGFAVFQGVFFKLGERFSKPSTEDPFFTRGRTMLVKLGLEKYEKNFKKGLLTDPTLPLLTDSALKDANIPPGPRLMILDHIQRDPEIKGKRK
B4: HP20 (At4g26670) (protein, UniProt Q94EH2 1-210)
chain: MAANDSSNAIDIDGNLDSDSNLNTDGDEATDNDSSKALVTIPAPAVCLFRFAGDAAGGAVMGSIFGYGSGLFKKKGFKGSFADAGQSAKTFAVLSGVHSLVVCLLKQIRGKDDAINVGVAGCCTGLALSFPGAPQALLQSCLTFGAFSFILEGLNKRQTALAHSVSLRHQTGLFQDHHRALPLSLALPIPEEIKGAFSSFCKSLAKPRKF
B5: TOC90 (protein, UniProt Q6S5G3 1-793)
chain: MKGFKDWVFALSNSMASSRPLLGSDPFFRDPHQEQDNHSQAPAAPQPVTLSEPPCSTSSDLEILPPLSQQQVPLESLYQSSIDLNGKKHNPLAKIGGLQVQFLRLVQRFGQSQNNILVSKVLYRVHLAMLIRAEESELKNVKLRQDRAKALAREQESSGIPELDFSLRILVLGKTGVGKSATINSIFGQPKSETDAFRPGTDRIEEVMGTVSGVKVTFIDTPGFHPLSSSSTRKNRKILLSIKRYVKKRPPDVVLYLDRLDMIDMRYSDFSLLQLITEIFGAAIWLNTILVMTHSAATTEGRNGQSVNYESYVGQRMDVVQHYIHQAVSDTKLENPVLLVENHPSCKKNLAGEYVLPNGVVWKPQFMFLCVCTKVLGDVQSLLRFRDSIGLGQPSSTRTASLPHLLSVFLRRRLSSGADETEKEIDKLLNLDLEEEDEYDQLPTIRILGKSRFEKLSKSQKKEYLDELDYRETLYLKKQLKEECRRRRDEKLVEEENLEDTEQRDQAAVPLPDMAGPDSFDSDFPAHRYRCVSAGDQWLVRPVYDPQGWDRDVGFDGINIETAAKINRNLFASATGQVSRDKQRFTIQSETNAAYTRNFREQTFSVAVDLQSSGEDLVYSFQGGTKLQTFKHNTTDVGVGLTSFGGKYYVGGKLEDTLLVGKRVKLTANAGQMRGSGQTANGGSFEACIRGRDYPVRNEQIGLTMTALSFKRELVLNYGLQTQFRPARGTNIDVNINMNNRKMGKINVKLNSSEHWEIALISALTMFKALVRRSKTEMTEENEEEKIVNFLVS
B6: HP30-2 (At5g24650) (protein, UniProt Q9FLT9 1-259)
chain: MGKDGEGDKKRETMAVMSLMKDQQNPIQQFQVKFKEIETGFKSWLSKQKLPVEAAVVTAMGGVQGAFIGGLMGTLSPEMPQAGIDPQAMASLKQTQALVGGPLVQARNFAAITGVNAGIACVMKRIRGKEDLESAVVAAFGSGVAYSLVSAGLQGQPMNAITTAAGFAVFQGVFFKLGERFSKPSVEDPYYTRGRSMLLKLGLEKYEKNFKKGLLADPTLPLLTDSALRDVSIPPGPRLLILDHIQRDPELKGKRGSRG

No constants are given. Whether binding was seen depends on the method and setting. In cells and extracts the contact can be indirect. Some binding calls cover weakened binding; strength is not graded here. Tags and fused reporters may be left off the sequences shown.

The assay concerns the target T1, hexa-histidine-tagged, 35S-methionine-labeled chloroplast envelope quinone oxidoreductase homologue (ceQORH-(His)6) (UniProt Q9SV68).
T1 sequence (chain, 35S-methionine-labeled): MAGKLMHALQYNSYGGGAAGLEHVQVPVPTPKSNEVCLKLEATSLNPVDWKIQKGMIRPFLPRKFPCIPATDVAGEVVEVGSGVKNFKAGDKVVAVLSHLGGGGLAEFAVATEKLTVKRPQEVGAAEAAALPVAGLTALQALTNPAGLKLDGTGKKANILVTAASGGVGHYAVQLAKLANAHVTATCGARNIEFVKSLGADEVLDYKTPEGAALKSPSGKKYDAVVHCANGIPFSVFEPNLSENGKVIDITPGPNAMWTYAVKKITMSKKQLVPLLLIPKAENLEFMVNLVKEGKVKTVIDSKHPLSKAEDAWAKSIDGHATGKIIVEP
The assay can be described thus: pull-down; purified 35S-ceQORH-(His)6 incubated 15 min with isolated Arabidopsis chloroplasts at 0.1 mM Mg-GTP and 0.1 mM Mg-ATP; envelope membranes detergent-solubilized (2% Triton X100, 300 mM NaCl, 20 mM imidazole); import intermediate-associated proteins purified by Ni-NTA chromatography, separated by 1D or 2D SDS-PAGE, Coomassie-stained and identified by protein sequencing; only the target purified.
On to B1, for which the binding result was “binds”. On to B2, for which the binding result is “binds”. The entry for B3 is “binds”; for B4 it is “binds”; for B5 it is “binds”.

Regarding B6, the binding result was “binds”.
